PMC9399059

By UniProt entry, the sequences of proteins in these tests, tags left out. Residues count along the entry.
UniProt P97571: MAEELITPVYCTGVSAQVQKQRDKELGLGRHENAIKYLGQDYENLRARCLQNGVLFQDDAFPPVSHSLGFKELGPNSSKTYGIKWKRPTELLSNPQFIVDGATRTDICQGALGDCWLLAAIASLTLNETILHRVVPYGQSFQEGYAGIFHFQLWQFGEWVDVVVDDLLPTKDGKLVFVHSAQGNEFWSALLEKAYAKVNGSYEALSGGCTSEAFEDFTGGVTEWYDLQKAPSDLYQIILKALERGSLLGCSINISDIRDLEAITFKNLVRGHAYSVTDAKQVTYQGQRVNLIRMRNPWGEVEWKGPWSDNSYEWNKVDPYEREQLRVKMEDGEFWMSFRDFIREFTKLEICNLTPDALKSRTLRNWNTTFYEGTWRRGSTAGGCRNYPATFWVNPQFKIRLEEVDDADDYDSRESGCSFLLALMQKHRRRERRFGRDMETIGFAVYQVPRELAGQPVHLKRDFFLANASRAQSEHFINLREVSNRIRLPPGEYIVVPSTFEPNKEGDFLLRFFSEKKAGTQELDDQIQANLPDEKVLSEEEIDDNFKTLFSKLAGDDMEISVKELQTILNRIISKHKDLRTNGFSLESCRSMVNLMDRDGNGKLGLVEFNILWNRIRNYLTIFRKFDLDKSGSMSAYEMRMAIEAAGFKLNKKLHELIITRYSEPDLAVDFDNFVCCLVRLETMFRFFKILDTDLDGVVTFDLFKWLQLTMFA
UniProt P15999, residues 44-553: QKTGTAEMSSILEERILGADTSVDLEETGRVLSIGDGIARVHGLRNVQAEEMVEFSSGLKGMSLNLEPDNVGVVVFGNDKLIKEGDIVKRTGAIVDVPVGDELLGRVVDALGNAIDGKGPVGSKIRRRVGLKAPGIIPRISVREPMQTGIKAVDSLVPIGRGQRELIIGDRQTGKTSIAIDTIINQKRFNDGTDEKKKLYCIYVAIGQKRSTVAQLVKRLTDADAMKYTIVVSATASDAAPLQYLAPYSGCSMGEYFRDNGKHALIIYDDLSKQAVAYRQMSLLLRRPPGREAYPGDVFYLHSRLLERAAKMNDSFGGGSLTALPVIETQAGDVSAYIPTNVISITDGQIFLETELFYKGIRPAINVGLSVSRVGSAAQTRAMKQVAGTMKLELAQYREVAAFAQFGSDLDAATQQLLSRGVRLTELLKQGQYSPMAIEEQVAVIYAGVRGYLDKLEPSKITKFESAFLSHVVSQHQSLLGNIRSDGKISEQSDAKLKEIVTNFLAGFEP

Target: calpain-1 conjugated with Flag (Ad-CAPN1) (rat) (UniProt P97571)
Assay: affinity purification with mass spectrometry; anti-Flag (control anti-IgG) immunoprecipitation from NP40 lysates of Ad-CAPN1-infected NRCMs, with or without CVB3 infection; Protein A/G magnetic beads, overnight 4 °C; SDS-PAGE then mass spectrometry

In the case of “ATP synthase-α (ATP5A1) (from UniProt P15999 44-553)”, the binding is reported as “binds”.

No constants are given. Whether binding was seen depends on the method and setting. In cells and extracts the contact can be indirect. These calls come from enrichment with a bait or labelling near it, and not all partners need be listed.
